Test results reported in patent publication US20220142960A1, “Compositions and Methods for Treating Metabolic Disorders” (VeroScience LLC, priority 2013, published 2022).
At least one structure is not confirmed: it was looked up by name or label, or the drawing left a doubt.

Tested on: high fat diet-resistant rats (HF-R)
Assay: Chronic intra-SuMN AMPA treatment of high fat diet-resistant rats
Assay type: in vivo, rat
Conditions: AMPA into SuMN daily for 13 d, versus 103.3, p=0.14, statistically not significant
Protocol: In separate protocols, female Sprague-Dawley high fat diet-resistant rats (HF-R) (16 animals) were fed high fat diets for 4 months or female Sprague-Dawley high fat diet-sensitive rats (HF-S) (16 animals) were fed high fat diets for 3 months. Following initial feeding protocols, AMPA (0.03 mM/0.5 µl) or vehicle was microinjected into SuMN daily for 13 (HF-R animals) or 14 d (HF-S) at the onset of locomotor activity. At the end of AMPA treatment, HF-R animals were sacrificed by decapitation. Trunk blood was collected for glucose and insulin analysis retroperitoneal fat mass were weighed. At the end of AMPA treatment, HF-S animals were subjected to glucose tolerance tests (GTT) and two days after GTT, were sacrificed. Trunk blood was collected for glucose and insulin analysis and retroperitoneal fat mass were weighed. Body weight and food consumption were measured daily throughout both protocols.

Cc1o[nH]c(=O)c1CC(N)C(=O)O (stereo not shown) [AMPA]
fasting blood glucose: 96.10[…]1.97
